Part of at least one peptide drawing is inferred or uncertain, most often the ends. Some compounds share one wording; it may come from a single statement. Numbered stars: 1 amine (or outer) side, 2 acyl side, 3 side chain; on linkers, the order of the positions; unused ones are H or OH. Bridge positions count the residues as written; N and C are the ends. Peptide text beside a SMILES is read from it. I, II: the chains in the order shown. OSi(nPr)2O = CCC[Si](CCC)(O[*:1])O[*:2]; X1 = C[Si](C)(O[*:1])O[*:2]
Assays:
Entero-Viren = test: Antiviral effect; details: in particular as vesicles holding antisense constructs
Hepatitis-Viren = test: Antiviral effect; details: in particular as vesicles holding antisense constructs
Lymphome = test: Effect on lymphomas
Basalzellkarzinome = test: Effect on basal cell carcinomas
Adenokarzinome = test: Effect on adenocarcinomas
Herpes-Viren = test: Antiviral effect; details: in particular as vesicles holding antisense constructs
Hepatitis A-Viren = test: Antiviral effect; details: in particular as vesicles holding antisense constructs
Plasmozyten = test: Effect against plasmocytes

**Q.** `C[Si](C)(OC(=O)CNC(=O)CNC(=O)CNC(=O)CNC(=O)CNC(=O)CNC(=O)CN)OC(=O)CNC(=O)CNC(=O)CNC(=O)CNC(=O)CNC(=O)CNC(=O)CN` [Dimethyl bis(heptaglycyl)silylester] (I: H-GGGGGGG / II: H-GGGGGGG; linker I:C-II:C via X1) was tested. Which “Wirkung gegen Entero-Viren” value (Entero-Viren) did it give?
**A.** Its value is “zeigen eine Wirkung”.

**Q.** How did the “Wirkung gegen Hepatitis-Viren” value (Hepatitis-Viren) turn out when `C[C@H](N)C(=O)N[C@@H](C)C(=O)N[C@@H](C)C(=O)O[Si](OC(=O)[C@H](C)NC(=O)[C@H](C)NC(=O)[C@H](C)N)(c1ccccc1)c1ccccc1` [Diphenyl bis(trialanyl)silylester] was run?
**A.** Its value is “zeigen eine Wirkung”.

**Q.** What about the “Wirkung auf Lymphome” value (Lymphome) of the same molecule?
**A.** The value was “zeigen eine Wirkung”.

**Q.** Which “Wirkung gegen Entero-Viren” value (Entero-Viren) does the source give for `C[Si](C)(OC(=O)CNC(=O)CNC(=O)CNC(=O)CNC(=O)CNC(=O)CN)OC(=O)CNC(=O)CNC(=O)CNC(=O)CNC(=O)CNC(=O)CN` [Dimethyl bis(hexaglycyl)silylester] here?
**A.** Its value is “zeigen eine Wirkung”.

**Q.** With `CCC[Si](CCC)(OC(=O)[C@@H](NC(=O)[C@@H](NC(=O)[C@@H](NC(=O)[C@@H](NC(=O)[C@@H](NC(=O)[C@@H](NC(=O)[C@@H](NC(=O)[C@@H](NC(=O)[C@@H](N)C(C)C)C(C)C)C(C)C)C(C)C)C(C)C)C(C)C)C(C)C)C(C)C)C(C)C)OC(=O)[C@@H](NC(=O)[C@@H](NC(=O)[C@@H](NC(=O)[C@@H](NC(=O)[C@@H](NC(=O)[C@@H](NC(=O)[C@@H](NC(=O)[C@@H](NC(=O)[C@@H](N)C(C)C)C(C)C)C(C)C)C(C)C)C(C)C)C(C)C)C(C)C)C(C)C)C(C)C` [Dipropyl bis(nonavalyl)silylester] (I: H-VVVVVVVVV / II: H-VVVVVVVVV; linker I:C-II:C via OSi(nPr)2O) as the molecule, how does the “Wirkung auf Basalzellkarzinome” value (Basalzellkarzinome) read?
**A.** The value was “zeigen eine Wirkung”.

**Q.** `CCC[Si](CCC)(OC(=O)[C@@H](NC(=O)[C@@H](NC(=O)[C@@H](NC(=O)[C@@H](N)C(C)C)C(C)C)C(C)C)C(C)C)OC(=O)[C@@H](NC(=O)[C@@H](NC(=O)[C@@H](NC(=O)[C@@H](N)C(C)C)C(C)C)C(C)C)C(C)C` [Dipropyl bis(tetravalyl)silylester] (I: H-VVVV / II: H-VVVV; linker I:C-II:C via OSi(nPr)2O) was tested. Which “Wirkung auf Adenokarzinome” value (Adenokarzinome) did it give?
**A.** Its value is “zeigen eine Wirkung”.

**Q.** What about the “Wirkung gegen Herpes-Viren” value (Herpes-Viren) of the same molecule?
**A.** The value was “zeigen eine Wirkung”.

**Q.** Which “Wirkung auf Adenokarzinome” value (Adenokarzinome) does the source give for `CCC[Si](CCC)(OC(=O)[C@@H](NC(=O)[C@@H](NC(=O)[C@@H](N)C(C)C)C(C)C)C(C)C)OC(=O)[C@@H](NC(=O)[C@@H](NC(=O)[C@@H](N)C(C)C)C(C)C)C(C)C` [Dipropyl bis(trivalyl)silylester] here?
**A.** Its value is “zeigen eine Wirkung”.

**Q.** What about the “Wirkung gegen Herpes-Viren” value (Herpes-Viren) of the same molecule?
**A.** The value was “zeigen eine Wirkung”.

**Q.** How did the “Wirkung gegen Hepatitis A-Viren” value (Hepatitis A-Viren) turn out when `CCC[Si](CCC)(OC(=O)[C@H](Cc1ccccc1)NC(=O)[C@H](Cc1ccccc1)NC(=O)[C@H](Cc1ccccc1)NC(=O)[C@H](Cc1ccccc1)NC(=O)[C@H](Cc1ccccc1)NC(=O)[C@H](Cc1ccccc1)NC(=O)[C@H](Cc1ccccc1)NC(=O)[C@H](Cc1ccccc1)NC(=O)[C@@H](N)Cc1ccccc1)OC(=O)[C@H](Cc1ccccc1)NC(=O)[C@H](Cc1ccccc1)NC(=O)[C@H](Cc1ccccc1)NC(=O)[C@H](Cc1ccccc1)NC(=O)[C@H](Cc1ccccc1)NC(=O)[C@H](Cc1ccccc1)NC(=O)[C@H](Cc1ccccc1)NC(=O)[C@H](Cc1ccccc1)NC(=O)[C@@H](N)Cc1ccccc1` [Dipropyl bis(nonaphenylalanyl)silylester] (I: H-FFFFFFFFF / II: H-FFFFFFFFF; linker I:C-II:C via OSi(nPr)2O) was run?
**A.** The value was “zeigen eine Wirkung”.

**Q.** And the “Wirkung gegen Plasmozyten” value (Plasmozyten)?
**A.** Its value is “zeigen eine Wirkung”.

**Q.** How did the “Wirkung gegen Hepatitis A-Viren” value (Hepatitis A-Viren) turn out when `CCC[Si](CCC)(OC(=O)[C@H](Cc1ccccc1)NC(=O)[C@H](Cc1ccccc1)NC(=O)[C@H](Cc1ccccc1)NC(=O)[C@H](Cc1ccccc1)NC(=O)[C@H](Cc1ccccc1)NC(=O)[C@H](Cc1ccccc1)NC(=O)[C@H](Cc1ccccc1)NC(=O)[C@H](Cc1ccccc1)NC(=O)[C@H](Cc1ccccc1)NC(=O)[C@@H](N)Cc1ccccc1)OC(=O)[C@H](Cc1ccccc1)NC(=O)[C@H](Cc1ccccc1)NC(=O)[C@H](Cc1ccccc1)NC(=O)[C@H](Cc1ccccc1)NC(=O)[C@H](Cc1ccccc1)NC(=O)[C@H](Cc1ccccc1)NC(=O)[C@H](Cc1ccccc1)NC(=O)[C@H](Cc1ccccc1)NC(=O)[C@H](Cc1ccccc1)NC(=O)[C@@H](N)Cc1ccccc1` [Dipropyl bis(decaphenylalanyl) silylester] (I: H-FFFFFFFFFF / II: H-FFFFFFFFFF; linker I:C-II:C via OSi(nPr)2O) was run?
**A.** The value was “zeigen eine Wirkung”.

**Q.** What about the “Wirkung gegen Plasmozyten” value (Plasmozyten) of the same molecule?
**A.** Its value is “zeigen eine Wirkung”.

— EP1948196B1, “USE OF TETRAORGANOSILICON COMPOUNDS” (Salama, Zoser B., priority 2005, dated 2007)
